Test results reported in PMC3534531.
These are yes or no findings as the source states them, for the method shown. A result given as binding can be weak or reduced; the word gives no strength.

Molecular target: type III secretion system protein fliF CPn0860 (Chlamydia pneumoniae)
Assay: two-hybrid; ORFeome-wide library screen: bait in pBD-Gate2 (GAL4 DNA-binding domain), pooled Cpn ORFeome prey library in pAD-Gate2, co-transformed into S. cerevisiae AH109; selection on SD/-trp-leu-ade-his, at least 4 days at 28°C; recovered preys retested with the bait or empty pBD-Gate2 and sequenced

B1: type III Secretion protein fliN CPn0704 (protein, UniProt A0ABN3YRD3 1-371)
chain: MAVAADSSASWLKSRNNFLSSLGKTEEQVAAPEFPKELCQHKIREKFRLEDVQVSIKFRGSITAVEATKEFGVHLLIQPMVVQPWEVENLLFLTSEEDLQELMVAVFDDASLASYFYEKDKLLGFHYYFVAEACKLFEELQWVPSLSAKVGGDAIFTATSLQGSFQVVDISLRLDGKNVRCRLLLPEDTFQSCQKFFSGLHDESDLHNIDQTQQISLSVEVGYSQLTQEEWHQVVPGSFIMLDSCLYDPETEESGALLTVQKHQFFGGRFLTPSSGEFKITSYPNLTHEDPPLPENPQASAAPLPGYSRLVVEVARYSLAVSEFIKLNLGSILSLGNHPAYGVDIILDGAKVGRGEIIALGDVLGIRVLEV
  binding: binds
